# The supplement of paper PMC8728848
# The list shows a part of the results.
# Assays:
# Test in all cases: glycan array binding signal (z-score within array); higher = stronger binding
# Conditions in all cases: glycan notation: IUPAC condensed, linker removed
# [1] = molecular target: Fuc(a1-2)[Gal(a1-3)]Gal
# Procedure, shortened: (§1)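 Glycan array data came from 3228 arrays in the Consortium for Functional Glycomics database, and only arrays with an available protein sequence were kept. Glycan names were put into IUPAC-condensed notation, and columns mapping to the same glycan were averaged. The binding signal is a within-array Z-score, averaged across arrays of one protein sequence run at different concentrations or buffers and across linkers. A negative Z-score can be read as non-binding.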
# [2] = molecular target: Fuc(a1-2)[Gal(a1-3)]Gal(b1-3)GlcNAc
# Procedure, shortened: as §1
# [3] = molecular target: Fuc(a1-2)[Gal(a1-3)]Gal(b1-3)GlcNAc(b1-2)Man(a1-3)[Fuc(a1-2)[Gal(a1-3)]Gal(b1-3)GlcNAc(b1-2)Man(a1-6)]Man(b1-4)GlcNAc(b1-4)GlcNAc
# Procedure, shortened: as §1
# [4] = molecular target: Fuc(a1-2)[Gal(a1-3)]Gal(b1-4)Glc
# Procedure, shortened: as §1
# [5] = molecular target: Fuc(a1-2)[Gal(a1-3)]Gal(b1-4)GlcNAc
# Procedure, shortened: as §1
# [6] = molecular target: Fuc(a1-2)[Gal(a1-3)]Gal(b1-4)GlcNAc(b1-2)Man(a1-3)[Fuc(a1-2)[Gal(a1-3)]Gal(b1-4)GlcNAc(b1-2)Man(a1-6)]Man(b1-4)GlcNAc(b1-4)GlcNAc
# Procedure, shortened: as §1
# [7] = molecular target: Fuc(a1-2)[Gal(a1-3)]Gal(b1-4)[Fuc(a1-3)]GlcNAc
# Procedure, shortened: as §1
# [8] = molecular target: Fuc(a1-2)[Gal(a1-4)]Gal(b1-4)GlcNAc
# Procedure, shortened: as §1
# [9] = molecular target: Fuc(a1-2)[GalNAc(a1-3)]Gal
# Procedure, shortened: as §1
# [10] = molecular target: Fuc(a1-2)[GalNAc(a1-3)]Gal(b1-3)GalNAc(a1-3)[Fuc(a1-2)]Gal(b1-4)GlcNAc
# Procedure, shortened: as §1
# [11] = molecular target: Fuc(a1-2)[GalNAc(a1-3)]Gal(b1-3)GlcNAc
# Procedure, shortened: as §1
# [12] = molecular target: Fuc(a1-2)[GalNAc(a1-3)]Gal(b1-3)GlcNAc(b1-2)Man(a1-3)[Fuc(a1-2)[GalNAc(a1-3)]Gal(b1-3)GlcNAc(b1-2)Man(a1-6)]Man(b1-4)GlcNAc(b1-4)GlcNAc
# Procedure, shortened: as §1
# [13] = molecular target: Fuc(a1-2)[GalNAc(a1-3)]Gal(b1-4)Glc
# Procedure, shortened: as §1
# [14] = molecular target: Fuc(a1-2)[GalNAc(a1-3)]Gal(b1-4)GlcNAc
# Procedure, shortened: as §1
# [15] = molecular target: Fuc(a1-2)[GalNAc(a1-3)]Gal(b1-4)GlcNAc(b1-2)Man(a1-3)[Fuc(a1-2)[GalNAc(a1-3)]Gal(b1-4)GlcNAc(b1-2)Man(a1-6)]Man(b1-4)GlcNAc(b1-4)GlcNAc
# Procedure, shortened: as §1
# [16] = molecular target: Fuc(a1-2)[GalNAc(a1-3)]Gal(b1-4)GlcNAc(b1-3)Gal(b1-4)GlcNAc
# Procedure, shortened: as §1
# [17] = molecular target: Fuc(a1-2)[GalNAc(a1-3)]Gal(b1-4)GlcNAc(b1-3)Gal(b1-4)GlcNAc(b1-3)Gal(b1-4)GlcNAc
# Procedure, shortened: as §1
# [18] = molecular target: Fuc(a1-2)[GalNAc(a1-3)]Gal(b1-4)[Fuc(a1-3)]GlcNAc
# Procedure, shortened: as §1
# [19] = molecular target: Fuc(a1-2)[GalNAc(a1-4)]Gal(b1-4)GlcNAc
# Procedure, shortened: as §1
# [20] = molecular target: Fuc(a1-2)[GalNAc(b1-3)]Gal
# Procedure, shortened: as §1
# [21] = molecular target: Fuc(a1-3)GlcNAc
# Procedure, shortened: as §1
# [22] = molecular target: Fuc(a1-3)[Gal(b1-4)]Glc6S
# Procedure, shortened: as §1
# [23] = molecular target: Fuc(a1-3)[Gal(b1-4)]GlcNAc
# Procedure, shortened: as §1
# [24] = molecular target: Fuc(a1-3)[Gal(b1-4)]GlcNAc(b1-2)Man(a1-3)[Fuc(a1-3)[Gal(b1-4)]GlcNAc(b1-2)Man(a1-6)]Man(b1-4)GlcNAc(b1-4)GlcNAc
# Procedure, shortened: as §1
# [25] = molecular target: Fuc(a1-3)[Gal(b1-4)]GlcNAc(b1-3)Gal(b1-3)[Fuc(a1-4)]GlcNAc
# Procedure, shortened: as §1
# [26] = molecular target: Fuc(a1-3)[Gal(b1-4)]GlcNAc(b1-3)GalNAc
# Procedure, shortened: as §1
# [27] = molecular target: Fuc(a1-3)[Gal(b1-4)]GlcNAc(b1-4)Gal(b1-4)[Fuc(a1-3)]GlcNAc
# Procedure, shortened: as §1
# [28] = molecular target: Fuc(a1-3)[Gal(b1-4)]GlcNAc(b1-4)Gal(b1-4)[Fuc(a1-3)]GlcNAc(b1-4)Gal(b1-4)[Fuc(a1-3)]GlcNAc
# Procedure, shortened: as §1
# [29] = molecular target: Fuc(a1-3)[Gal(b1-4)]GlcNAc(b1-6)[Gal(b1-3)GlcNAc(b1-3)]Gal(b1-4)Glc
# Procedure, shortened: as §1
# [30] = molecular target: Fuc(a1-3)[Gal(b1-4)]GlcNAc6S
# Procedure, shortened: as §1
binder,measurement,setting,value
"MIC2 (Toxoplasma gondii), S8F9G8 (protein) MRLQREAVFGLMFACGMWMWPSEVAGGGWSIVDALRKRYDTSRGGDANGVDTSGVEDVIQSESAIGAAEGCTNQLDICFLIDSSGSIGIQNFRLVKQFLHTFLMVLPIGPEEVNNAVVTYSTDVHLQWDLQSPNAVDKQLAAHAVLDMPYKKGSTNTSDGLKACKQILFTGSRPGREHVPKLVIGMTDGESDSDFRTVRAAKEIRELGGIVTVLAVGHYVKHSECRSMCGCSGTSDDDSPCPLYLRADWGQLATAIKPMLKEVCKTLPQDAICSDWSAWSPCSVSCGDGSQIRTRTEVSAPQPGTPTCPDCPAPMGRTCVEQGGLEEIRECSAGVCAVDAGCGVWGEWSAWSASCGNATRKRERTRYNDPPPQGAGRRCENQDPPVLQEQTEEATLAPCITIPPTPPEWAAWSDCTVTCGGGNRHRVRNALPPGLGSQNGESDESLVSKLWPGTDLRQEEACNTSPCPINATCGQFEEWSTCSVSCGGGLKTRSRNPWNEDQQHGGLSCEQQHPGGRTETITCNPQACPVDERPGEWAEWGECSVTCGDGVRERRRGKSLVEAKFGGRTIDQQNEALPEDLKIKNVEYEPCSYPACGASCTYVWSDWNKCVCPMGYQARHAAVKFDYRNKPCDLPTFETKACSCGETNPVPSEGTTPGAPGATGPEQPNQRPLPEGSDENETPTNEEGEQSKKESGSGIAGAIAGGVIGGLILLGAAGGASYHYYLSSSVGSPSAEIEYEADDGATKVVMEEEKETLVPVDDDSDMWME",glycan array binding signal (z-score),[1],-0.292
same,glycan array binding signal (z-score),[2],0.239
same,glycan array binding signal (z-score),[3],-1.04
same,glycan array binding signal (z-score),[4],-0.944
same,glycan array binding signal (z-score),[5],-0.592
same,glycan array binding signal (z-score),[6],0.032
same,glycan array binding signal (z-score),[7],0.093
same,glycan array binding signal (z-score),[8],-0.707
same,glycan array binding signal (z-score),[9],-0.489
same,glycan array binding signal (z-score),[10],0.43
same,glycan array binding signal (z-score),[11],0.132
same,glycan array binding signal (z-score),[12],-0.875
same,glycan array binding signal (z-score),[13],0.169
same,glycan array binding signal (z-score),[14],0.413
same,glycan array binding signal (z-score),[15],-0.937
same,glycan array binding signal (z-score),[16],-0.814
same,glycan array binding signal (z-score),[17],0.915
same,glycan array binding signal (z-score),[18],0.955
same,glycan array binding signal (z-score),[19],-0.89
same,glycan array binding signal (z-score),[20],-0.782
same,glycan array binding signal (z-score),[21],-0.671
same,glycan array binding signal (z-score),[22],-0.826
same,glycan array binding signal (z-score),[23],0.085
same,glycan array binding signal (z-score),[24],2.86
same,glycan array binding signal (z-score),[25],-0.573
same,glycan array binding signal (z-score),[26],2.38
same,glycan array binding signal (z-score),[27],0.173
same,glycan array binding signal (z-score),[28],0.256
same,glycan array binding signal (z-score),[29],-0.489
same,glycan array binding signal (z-score),[30],-0.712
